Results are given in words; binding and its absence hold for the method and conditions named. Some binding calls cover weakened binding; strength is not graded here.
Key:
[1] = target: rat non-gastric H+,K+-ATPase α subunit Lys794Ser (rat) (UniProt P54708); assay: cryo-EM structure; αβ complex co-expressed and purified together in GDN; 100 mM KCl, 1 mM AlCl3, 4 mM NaF, pH 6.5; (K+)E2-Pi state; both purified
[2] = target: rat non-gastric H+,K+-ATPase α subunit Lys794Ala (rat) (UniProt P54708); assay: as above
[3] = target: rat non-gastric H+,K+-ATPase α subunit SPWC mutant (Lys794Ser/Ala797Pro/Ile943Trp/Arg949Cys) (rat) (UniProt P54708); assay: as above
[4] = target: rat non-gastric H+,K+-ATPase (ngHKA) α subunit, wild type (rat) (UniProt P54708); assay: crystal structure; αβ complex co-expressed and purified together, lipidated with dioleoyl phosphatidylcholine; vapor diffusion at 20 °C; K+ (or Rb+) and AlF4, (K+)E2-Pi state; both purified
[5] = target: rat non-gastric H+,K+-ATPase α subunit SPWC mutant (Lys794Ser/Ala797Pro/Ile943Trp/Arg949Cys) (rat) (UniProt P54708); assay: cryo-EM structure; αβ complex co-expressed and purified together in GDN; 300 mM NaCl, 5 mM AMPPCP, pH 6.5; 3Na+·E1-ATP state; both purified

Amino acid sequences for entries named in this document (tags omitted). A change or cut given only in a name is not applied to a line headed by its entry. Chains listed by the source or under a name are the forms on record and can include a tag or linker.
rat non-gastric H+,K+-ATPase α subunit Lys794Ser (P54708, form named): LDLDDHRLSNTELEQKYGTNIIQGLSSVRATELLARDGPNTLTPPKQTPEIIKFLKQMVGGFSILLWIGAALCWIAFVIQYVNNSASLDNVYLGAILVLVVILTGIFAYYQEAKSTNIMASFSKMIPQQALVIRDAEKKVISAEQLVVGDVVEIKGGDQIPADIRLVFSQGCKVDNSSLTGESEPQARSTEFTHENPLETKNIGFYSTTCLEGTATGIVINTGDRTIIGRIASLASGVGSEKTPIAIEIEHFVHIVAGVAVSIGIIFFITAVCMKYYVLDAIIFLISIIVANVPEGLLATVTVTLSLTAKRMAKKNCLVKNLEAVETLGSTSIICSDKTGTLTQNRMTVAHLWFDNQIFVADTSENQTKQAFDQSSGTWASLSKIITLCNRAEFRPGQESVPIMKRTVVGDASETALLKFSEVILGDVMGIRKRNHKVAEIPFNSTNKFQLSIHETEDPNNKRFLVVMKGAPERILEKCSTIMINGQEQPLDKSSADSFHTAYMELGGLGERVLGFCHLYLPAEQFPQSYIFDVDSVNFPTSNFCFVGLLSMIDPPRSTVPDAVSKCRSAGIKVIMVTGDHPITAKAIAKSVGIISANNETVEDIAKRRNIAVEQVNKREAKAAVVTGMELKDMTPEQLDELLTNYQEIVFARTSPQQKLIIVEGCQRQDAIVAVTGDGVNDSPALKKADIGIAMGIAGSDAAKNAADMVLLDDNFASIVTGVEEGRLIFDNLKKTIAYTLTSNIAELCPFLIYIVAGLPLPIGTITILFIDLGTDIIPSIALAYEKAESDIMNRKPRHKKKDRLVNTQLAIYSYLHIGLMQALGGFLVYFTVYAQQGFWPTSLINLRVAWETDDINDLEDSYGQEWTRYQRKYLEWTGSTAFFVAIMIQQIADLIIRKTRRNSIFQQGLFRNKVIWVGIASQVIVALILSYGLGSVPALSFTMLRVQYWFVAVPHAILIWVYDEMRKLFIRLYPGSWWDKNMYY
rat non-gastric H+,K+-ATPase α subunit Lys794Ala (P54708, form named): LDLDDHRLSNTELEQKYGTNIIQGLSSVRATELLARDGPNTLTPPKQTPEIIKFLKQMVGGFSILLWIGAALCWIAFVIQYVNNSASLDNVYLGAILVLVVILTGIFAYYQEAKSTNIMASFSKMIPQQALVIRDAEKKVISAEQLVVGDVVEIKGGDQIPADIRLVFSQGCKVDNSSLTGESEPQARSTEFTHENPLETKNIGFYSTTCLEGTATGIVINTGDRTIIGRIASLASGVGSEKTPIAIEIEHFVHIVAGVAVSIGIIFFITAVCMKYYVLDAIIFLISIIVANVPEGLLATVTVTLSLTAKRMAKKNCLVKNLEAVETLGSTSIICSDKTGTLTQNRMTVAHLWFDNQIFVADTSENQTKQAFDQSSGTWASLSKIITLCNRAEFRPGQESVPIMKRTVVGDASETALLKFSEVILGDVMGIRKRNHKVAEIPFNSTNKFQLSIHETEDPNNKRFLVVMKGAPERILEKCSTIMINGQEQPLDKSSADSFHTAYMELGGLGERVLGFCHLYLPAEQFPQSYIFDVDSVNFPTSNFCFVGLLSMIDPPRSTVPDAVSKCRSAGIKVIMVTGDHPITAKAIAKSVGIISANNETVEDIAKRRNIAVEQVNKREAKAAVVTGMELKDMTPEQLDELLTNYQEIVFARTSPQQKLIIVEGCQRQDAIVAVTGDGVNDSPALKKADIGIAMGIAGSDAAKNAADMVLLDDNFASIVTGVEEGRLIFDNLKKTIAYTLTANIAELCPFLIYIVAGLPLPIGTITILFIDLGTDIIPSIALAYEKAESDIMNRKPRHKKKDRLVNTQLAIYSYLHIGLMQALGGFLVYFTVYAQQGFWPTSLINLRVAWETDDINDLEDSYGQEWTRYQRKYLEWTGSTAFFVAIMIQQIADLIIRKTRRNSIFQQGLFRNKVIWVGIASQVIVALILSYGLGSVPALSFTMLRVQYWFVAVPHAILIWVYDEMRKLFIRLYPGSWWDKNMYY
rat non-gastric H+,K+-ATPase α subunit SPWC mutant (Lys794Ser/Ala797Pro/Ile943Trp/Arg949Cys) (P54708, form named): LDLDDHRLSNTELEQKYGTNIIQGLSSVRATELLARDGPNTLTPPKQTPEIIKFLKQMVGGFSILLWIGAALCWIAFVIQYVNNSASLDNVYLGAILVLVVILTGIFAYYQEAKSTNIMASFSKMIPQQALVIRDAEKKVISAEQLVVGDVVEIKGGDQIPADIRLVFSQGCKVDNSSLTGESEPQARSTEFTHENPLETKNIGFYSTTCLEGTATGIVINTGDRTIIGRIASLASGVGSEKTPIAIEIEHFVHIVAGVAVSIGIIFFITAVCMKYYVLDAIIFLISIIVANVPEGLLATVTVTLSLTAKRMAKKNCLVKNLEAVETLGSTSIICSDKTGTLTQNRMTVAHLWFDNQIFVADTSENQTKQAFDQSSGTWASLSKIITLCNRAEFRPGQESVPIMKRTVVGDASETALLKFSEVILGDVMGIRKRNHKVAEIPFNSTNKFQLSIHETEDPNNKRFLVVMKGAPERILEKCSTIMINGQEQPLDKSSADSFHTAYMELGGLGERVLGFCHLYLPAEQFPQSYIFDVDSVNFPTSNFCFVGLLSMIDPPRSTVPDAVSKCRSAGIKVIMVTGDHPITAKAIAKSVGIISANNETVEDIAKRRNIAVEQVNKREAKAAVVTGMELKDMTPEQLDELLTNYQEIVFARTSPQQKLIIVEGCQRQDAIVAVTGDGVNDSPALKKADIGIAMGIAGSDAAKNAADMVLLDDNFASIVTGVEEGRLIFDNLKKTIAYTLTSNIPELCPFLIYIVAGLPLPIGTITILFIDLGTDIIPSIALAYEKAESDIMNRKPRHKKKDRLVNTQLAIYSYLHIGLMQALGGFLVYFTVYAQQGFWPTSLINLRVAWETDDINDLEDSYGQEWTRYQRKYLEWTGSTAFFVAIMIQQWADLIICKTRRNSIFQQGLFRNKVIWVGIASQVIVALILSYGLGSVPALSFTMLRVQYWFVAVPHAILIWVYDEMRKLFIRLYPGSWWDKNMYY
rat non-gastric H+,K+-ATPase (ngHKA) α subunit, wild type (P54708, form named): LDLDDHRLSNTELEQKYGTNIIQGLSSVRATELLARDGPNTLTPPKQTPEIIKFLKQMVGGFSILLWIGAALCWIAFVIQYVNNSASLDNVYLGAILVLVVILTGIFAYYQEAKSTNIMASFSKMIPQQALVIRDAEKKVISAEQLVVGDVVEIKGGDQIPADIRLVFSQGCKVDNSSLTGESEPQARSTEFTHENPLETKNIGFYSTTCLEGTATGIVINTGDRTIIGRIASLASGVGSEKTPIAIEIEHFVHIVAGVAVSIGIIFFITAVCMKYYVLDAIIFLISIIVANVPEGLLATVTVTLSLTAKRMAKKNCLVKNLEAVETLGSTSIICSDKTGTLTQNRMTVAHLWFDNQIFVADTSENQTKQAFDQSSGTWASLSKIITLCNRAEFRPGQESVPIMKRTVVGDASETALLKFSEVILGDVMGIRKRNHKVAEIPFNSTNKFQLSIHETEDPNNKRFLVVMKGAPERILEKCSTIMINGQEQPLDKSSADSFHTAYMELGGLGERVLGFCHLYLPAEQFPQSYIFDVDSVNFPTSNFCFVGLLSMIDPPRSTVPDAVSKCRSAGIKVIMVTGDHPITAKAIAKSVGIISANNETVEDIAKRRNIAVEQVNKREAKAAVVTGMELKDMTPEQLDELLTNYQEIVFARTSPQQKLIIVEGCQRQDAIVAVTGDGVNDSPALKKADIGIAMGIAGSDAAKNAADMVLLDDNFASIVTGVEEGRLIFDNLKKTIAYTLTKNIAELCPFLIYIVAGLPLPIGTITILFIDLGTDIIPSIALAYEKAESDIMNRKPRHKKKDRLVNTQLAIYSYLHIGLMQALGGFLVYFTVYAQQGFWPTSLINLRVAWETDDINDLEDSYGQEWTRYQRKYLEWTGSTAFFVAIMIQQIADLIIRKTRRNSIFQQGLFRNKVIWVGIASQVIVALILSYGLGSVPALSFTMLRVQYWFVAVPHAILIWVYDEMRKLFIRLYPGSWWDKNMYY

Measured: binding

rat Na+,K+-ATPase (NKA) β1 subunit, wild type (from UniProt P07340 1-304)
binds: all assays above
